From article PMC7819943, “Rice protein-binding microarrays: a tool to detect cis-acting elements near promoter regions in rice”
This is one part of the list.

By UniProt entry, the sequences of proteins in these tests, tags left out.
UniProt Q0JBA9, entry or part of it: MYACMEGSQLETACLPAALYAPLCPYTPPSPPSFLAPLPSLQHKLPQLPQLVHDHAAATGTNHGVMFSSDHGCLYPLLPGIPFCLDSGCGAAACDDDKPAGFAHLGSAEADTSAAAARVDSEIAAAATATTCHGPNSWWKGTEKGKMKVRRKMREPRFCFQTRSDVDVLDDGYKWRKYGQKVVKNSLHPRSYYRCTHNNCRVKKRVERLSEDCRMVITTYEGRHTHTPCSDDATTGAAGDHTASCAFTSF

biological target: OsWRKY34 (Oryza sativa, UniProt Q0JBA9 1-250); assay: protein-binding microarray (RPBM); PBS, 2% BSA, 51.3 ng/ul salmon testes DNA, 50 uM zinc acetate, 200 nM TF, 25 C, 1 h; high values mean tight binding; conditions: protein: recombinant; tags: N-terminal polyhistidine and DsRed monomer fusion (pET32a); label: CyDye5-dUTP incorporated in the synthesized complementary strand; 3' TTTTT single-stranded linker to array surface; dsDNA, one strand shown
Outline: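 Transcription factors were made in E. coli BL21-CodonPlus as N-terminal fusions to a polyhistidine tag and DsRed, then purified on Ni–NTA. After primer extension with Cy5-dUTP and blocking with 2% BSA, a custom Agilent array was exposed for 1 h at 25 °C to 200 nM protein in PBS, 2% BSA, salmon testes DNA and 50 µM zinc acetate. Washed arrays were scanned on an Axon 4000B, and the binding signal is per-feature fluorescence intensity in arbitrary units.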

Row | Sequence | binding signal
1 | GGCCCACTTATTTCCGACCACCGACGGCCGCGAGCGGCCCCGGAGTCACCTAGTGCAG | 8810 fluorescence intensity (a.u.)
2 | CCAGCACGACGTACTGCACCACCGCGGCACCCAACTCAAGCGGAGTCACCTAGTGCAG | 8290 fluorescence intensity (a.u.)
3 | GTGGAATCGTTCGTTCTTGACTTCACCTACCAAGATTTGCCGGAGTCACCTAGTGCAG | 8640 fluorescence intensity (a.u.)
4 | AGGATCCAGCTCTTACGGCCCAATCTCCATCACGATCTCACGGAGTCACCTAGTGCAG | 8350 fluorescence intensity (a.u.)
5 | ATTAATACAGGTGATAGGGTAGGGTTAGCTTTTGACTCTTCGGAGTCACCTAGTGCAG | 11300 fluorescence intensity (a.u.)
6 | AACCAAAATTCCAACTTGTCATCCATGCATGCATCCTCCACGGAGTCACCTAGTGCAG | 8170 fluorescence intensity (a.u.)
7 | GTTTCTCCACTAGTGTTATTTGCCAGCTAATCATCGACCACGGAGTCACCTAGTGCAG | 8520 fluorescence intensity (a.u.)
8 | TGACGCCGTTGGTTTTTTTAAACATGTTTGACCATTCGTCCGGAGTCACCTAGTGCAG | 8990 fluorescence intensity (a.u.)
9 | CGTGCCACCTCGGCGCATGCCTCTCTACGGCTAGCTACTCCGGAGTCACCTAGTGCAG | 9020 fluorescence intensity (a.u.)
10 | TTAAGCTGCTATTTTTTTTTTGTCTTGTGTTTATACTTTTCGGAGTCACCTAGTGCAG | 8720 fluorescence intensity (a.u.)
11 | TTTTTTGTCATTGTAATGACATGGTGTTGAGCTGTTGATTCGGAGTCACCTAGTGCAG | 8880 fluorescence intensity (a.u.)
12 | GGTTTGTTTGGAGGCGCAATGTTTCTCACCCTGTCGTTCCCGGAGTCACCTAGTGCAG | 12700 fluorescence intensity (a.u.)
13 | TTGCCTATCATCGATCTGTAAATCGAGAATTTTATCTTTTCGGAGTCACCTAGTGCAG | 8530 fluorescence intensity (a.u.)
14 | AATCATCACCATCCTCGATTCCTCTCCACCGCGCTTTCCGCGGAGTCACCTAGTGCAG | 13100 fluorescence intensity (a.u.)
15 | TTGTATCTACGTTTGAATTTGTGTTTTATCCATCATACGTCGGAGTCACCTAGTGCAG | 8300 fluorescence intensity (a.u.)
16 | GTACGCTGAGCTCGTTGATAGATTTGGGCTAGCCCCAACGCGGAGTCACCTAGTGCAG | 8480 fluorescence intensity (a.u.)
17 | ATCAAATTTTAGTAGGTAACATATACTTCATCCGTTTCACCGGAGTCACCTAGTGCAG | 8410 fluorescence intensity (a.u.)
18 | AAGCTCACCCATGTTTGTGCCCACACATCTCTCTTCCACCCGGAGTCACCTAGTGCAG | 9040 fluorescence intensity (a.u.)
19 | CCAACGCATCGCCCCACAAATCACGCCGCCGTCGCCACCCCGGAGTCACCTAGTGCAG | 8350 fluorescence intensity (a.u.)
20 | GTACTATTACCCATCTTCTTCTTCCTCATTTTCTCCCTCCCGGAGTCACCTAGTGCAG | 8120 fluorescence intensity (a.u.)
21 | AGAGAGAGACCACATAAATTATACTCTTTTTTTTTGCTGTCGGAGTCACCTAGTGCAG | 8810 fluorescence intensity (a.u.)

Row | Sequence | binding signal
22 | ACCTCTTGCAATTAATAGCTTGACTTTGACTTTGACTTCCCGGAGTCACCTAGTGCAG | 14500 fluorescence intensity (a.u.)
23 | TATGTTTGGCTATGCTGTCTTTGCATTGATATATCCTGGACGGAGTCACCTAGTGCAG | 8140 fluorescence intensity (a.u.)
24 | TTCGGAGGGGTTGGCAGCGATGCGACGAGGGCAGGATACACGGAGTCACCTAGTGCAG | 8080 fluorescence intensity (a.u.)
25 | AATTCTGTCTCATGTAGCCTGTTGATTGTCCTGCTTCTTTCGGAGTCACCTAGTGCAG | 8080 fluorescence intensity (a.u.)
26 | CATGAGATGTTGCTAGCCAAATAGTCCATCTTCTAAACAGCGGAGTCACCTAGTGCAG | 9450 fluorescence intensity (a.u.)
27 | GCTCCCATGGCGCTCGTCTCCACCACCGCCACAGTCGCGTCGGAGTCACCTAGTGCAG | 11600 fluorescence intensity (a.u.)
28 | ATTATCCCTCGGACACCCTATGTTACTTTTTCTTTCTATCCGGAGTCACCTAGTGCAG | 14100 fluorescence intensity (a.u.)
29 | TCATCCGTCCATCTGCCATCTCATCTCATCTCATCTCAACCGGAGTCACCTAGTGCAG | 9480 fluorescence intensity (a.u.)
30 | ACTCCTGCTGCTCGCCTTGTTGTTTGCGTTATTGTTTGTTCGGAGTCACCTAGTGCAG | 11000 fluorescence intensity (a.u.)
31 | GATTTTGGGCCAACGCTAGTGTACTTCCCACGGCCCATTTCGGAGTCACCTAGTGCAG | 8080 fluorescence intensity (a.u.)
32 | CCTCCAGCACCGCACATGTCCGCAACCGCTCTCCTGCAGACGGAGTCACCTAGTGCAG | 8880 fluorescence intensity (a.u.)
33 | ATACCGCCATCGTCTCTTTCTCGTCGTCGCCGGCGACGCCCGGAGTCACCTAGTGCAG | 13400 fluorescence intensity (a.u.)
34 | CAGGTTCGTAGCTAGGGTTTGTCTTTGTTTAGGACGGAGTCGGAGTCACCTAGTGCAG | 8690 fluorescence intensity (a.u.)
35 | ATCTGTCATTACACGGTGGATTTTCAAAACCATTTACTTCCGGAGTCACCTAGTGCAG | 9470 fluorescence intensity (a.u.)
36 | TTGCTGATGCTGCCTTGGTGATCTTTTTACTTTGTCCTGTCGGAGTCACCTAGTGCAG | 9720 fluorescence intensity (a.u.)
37 | AAGGATTTGGAAGTGCAGGTAATCTATGGGTTTCTGGTTTCGGAGTCACCTAGTGCAG | 9250 fluorescence intensity (a.u.)
38 | TCGTCCTCGAGCCCAATACTATACTACTCCTTTGACTCCTCGGAGTCACCTAGTGCAG | 9370 fluorescence intensity (a.u.)
39 | ATTACATAATTCACGTGTCGAGCAATGCTTATCTTCCATCCGGAGTCACCTAGTGCAG | 8990 fluorescence intensity (a.u.)
40 | TGATGGTTTCATCGTCATCTGGGGTTGGAAATGATGATCACGGAGTCACCTAGTGCAG | 11400 fluorescence intensity (a.u.)
41 | CTCTTCCATTTCTACCATTTATCTGAAGCACAGTTTTTTTCGGAGTCACCTAGTGCAG | 10000 fluorescence intensity (a.u.)
42 | TGCATCCAACCCCGTTCACTTCGATTCGCTCCACGCGCGCCGGAGTCACCTAGTGCAG | 11100 fluorescence intensity (a.u.)

Rewritten in markdown: part of the list above.

| Row | Sequence | binding signal |
| --- | --- | --- |
| 34 | CAGGTTCGTAGCTAGGGTTTGTCTTTGTTTAGGACGGAGTCGGAGTCACCTAGTGCAG | 8690 fluorescence intensity (a.u.) |
| 36 | TTGCTGATGCTGCCTTGGTGATCTTTTTACTTTGTCCTGTCGGAGTCACCTAGTGCAG | 9720 fluorescence intensity (a.u.) |
